From the supplement of paper PMC12823440, “Inhibitors supercharge kinase turnover through native proteolytic circuits” (Nature, 2025)
Counter-ions that a name gives are not always drawn. This is one part of the list. Hit calls seldom repeat between salt and free forms of one compound.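 In K562 cells expressing nanoluciferase-fused kinases, luminescence was recorded at 4 h intervals between 2 and 18 h, normalized as percent of control with DMSO at 100% and a positive control at 0%. A significant (2 sigma) signal drop marks a time point as decreased. The authors' rule for a hit is not shown and takes in more than the number of time points.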

Amino acid sequences for entries named in this document (tags omitted). A change or cut given only in a name is not applied to a line headed by its entry.
UniProt Q9UM73: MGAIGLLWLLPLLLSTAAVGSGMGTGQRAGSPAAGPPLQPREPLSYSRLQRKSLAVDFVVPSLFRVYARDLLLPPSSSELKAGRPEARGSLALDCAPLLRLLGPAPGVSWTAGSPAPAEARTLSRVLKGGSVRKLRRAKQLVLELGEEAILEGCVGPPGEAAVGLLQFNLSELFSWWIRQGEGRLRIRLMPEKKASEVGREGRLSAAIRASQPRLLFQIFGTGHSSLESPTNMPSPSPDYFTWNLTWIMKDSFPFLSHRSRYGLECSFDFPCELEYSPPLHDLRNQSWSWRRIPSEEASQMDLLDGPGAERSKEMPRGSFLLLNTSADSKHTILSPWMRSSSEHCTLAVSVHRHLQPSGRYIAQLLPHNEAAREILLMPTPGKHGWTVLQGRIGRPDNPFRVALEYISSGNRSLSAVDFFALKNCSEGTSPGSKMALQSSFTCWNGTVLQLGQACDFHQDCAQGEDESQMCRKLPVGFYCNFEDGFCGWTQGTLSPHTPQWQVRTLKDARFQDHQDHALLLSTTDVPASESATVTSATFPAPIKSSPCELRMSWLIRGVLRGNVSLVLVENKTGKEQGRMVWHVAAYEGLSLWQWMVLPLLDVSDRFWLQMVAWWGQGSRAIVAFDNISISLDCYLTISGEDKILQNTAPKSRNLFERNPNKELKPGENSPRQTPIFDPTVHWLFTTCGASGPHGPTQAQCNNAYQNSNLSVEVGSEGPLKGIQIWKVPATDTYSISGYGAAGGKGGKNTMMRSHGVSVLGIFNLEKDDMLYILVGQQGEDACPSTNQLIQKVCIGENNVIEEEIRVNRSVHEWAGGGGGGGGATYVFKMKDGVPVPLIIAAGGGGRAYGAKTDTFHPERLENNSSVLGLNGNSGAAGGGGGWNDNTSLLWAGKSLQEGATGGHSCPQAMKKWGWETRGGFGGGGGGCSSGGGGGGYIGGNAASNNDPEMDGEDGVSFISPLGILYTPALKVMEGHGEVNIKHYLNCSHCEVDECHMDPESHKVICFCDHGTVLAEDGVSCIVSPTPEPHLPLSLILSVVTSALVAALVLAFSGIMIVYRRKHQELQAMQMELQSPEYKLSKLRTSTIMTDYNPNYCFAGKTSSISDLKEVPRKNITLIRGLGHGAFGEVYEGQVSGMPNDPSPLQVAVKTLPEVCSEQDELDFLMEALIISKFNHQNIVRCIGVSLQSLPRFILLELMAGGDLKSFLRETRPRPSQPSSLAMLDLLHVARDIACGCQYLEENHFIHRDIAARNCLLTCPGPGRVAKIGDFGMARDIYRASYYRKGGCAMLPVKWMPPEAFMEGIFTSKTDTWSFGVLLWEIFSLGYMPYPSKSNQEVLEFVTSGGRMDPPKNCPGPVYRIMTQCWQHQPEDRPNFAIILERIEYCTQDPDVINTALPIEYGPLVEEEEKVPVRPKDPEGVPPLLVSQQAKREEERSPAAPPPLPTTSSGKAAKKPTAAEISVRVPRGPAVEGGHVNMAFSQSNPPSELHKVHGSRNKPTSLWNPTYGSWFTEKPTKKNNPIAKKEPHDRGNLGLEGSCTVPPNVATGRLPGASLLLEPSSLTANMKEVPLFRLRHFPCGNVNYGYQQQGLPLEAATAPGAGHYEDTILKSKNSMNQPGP
UniProt P10398: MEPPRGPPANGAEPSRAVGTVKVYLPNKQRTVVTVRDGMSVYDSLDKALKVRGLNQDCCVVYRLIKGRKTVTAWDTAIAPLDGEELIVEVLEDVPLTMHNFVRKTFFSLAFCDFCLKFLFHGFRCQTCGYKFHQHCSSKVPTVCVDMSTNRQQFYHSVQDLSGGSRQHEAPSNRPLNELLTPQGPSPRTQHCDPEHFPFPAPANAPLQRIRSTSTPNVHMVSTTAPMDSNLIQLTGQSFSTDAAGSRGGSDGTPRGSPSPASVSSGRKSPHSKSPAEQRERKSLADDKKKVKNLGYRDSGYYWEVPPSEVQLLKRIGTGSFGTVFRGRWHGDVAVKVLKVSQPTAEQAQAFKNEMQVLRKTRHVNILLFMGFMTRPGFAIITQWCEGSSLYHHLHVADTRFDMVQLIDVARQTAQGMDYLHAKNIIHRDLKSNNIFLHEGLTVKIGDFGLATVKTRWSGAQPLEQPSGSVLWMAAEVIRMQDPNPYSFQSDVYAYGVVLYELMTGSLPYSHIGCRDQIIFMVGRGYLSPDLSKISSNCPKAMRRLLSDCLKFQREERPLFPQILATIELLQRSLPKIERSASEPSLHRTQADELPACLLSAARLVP
UniProt O14965: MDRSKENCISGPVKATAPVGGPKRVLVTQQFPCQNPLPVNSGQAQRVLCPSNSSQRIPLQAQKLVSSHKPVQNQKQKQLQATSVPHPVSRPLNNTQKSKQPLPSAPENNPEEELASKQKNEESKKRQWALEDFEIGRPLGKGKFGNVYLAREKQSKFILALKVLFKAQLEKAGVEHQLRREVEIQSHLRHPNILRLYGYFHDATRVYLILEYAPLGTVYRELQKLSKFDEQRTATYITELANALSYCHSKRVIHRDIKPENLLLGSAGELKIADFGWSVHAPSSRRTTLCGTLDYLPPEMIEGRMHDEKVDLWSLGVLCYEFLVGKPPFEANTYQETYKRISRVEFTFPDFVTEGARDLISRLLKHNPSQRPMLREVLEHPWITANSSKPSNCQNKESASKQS
UniProt Q96GD4, whole entry: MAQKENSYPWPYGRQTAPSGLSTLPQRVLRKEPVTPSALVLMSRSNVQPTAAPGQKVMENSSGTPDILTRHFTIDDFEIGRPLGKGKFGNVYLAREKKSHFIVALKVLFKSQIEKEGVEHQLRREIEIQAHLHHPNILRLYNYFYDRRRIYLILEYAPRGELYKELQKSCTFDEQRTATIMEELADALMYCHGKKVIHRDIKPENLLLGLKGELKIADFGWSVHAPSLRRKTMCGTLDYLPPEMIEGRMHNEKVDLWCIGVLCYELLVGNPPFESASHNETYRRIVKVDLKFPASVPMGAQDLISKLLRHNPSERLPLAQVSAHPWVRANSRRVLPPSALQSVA
UniProt Q9UQB9: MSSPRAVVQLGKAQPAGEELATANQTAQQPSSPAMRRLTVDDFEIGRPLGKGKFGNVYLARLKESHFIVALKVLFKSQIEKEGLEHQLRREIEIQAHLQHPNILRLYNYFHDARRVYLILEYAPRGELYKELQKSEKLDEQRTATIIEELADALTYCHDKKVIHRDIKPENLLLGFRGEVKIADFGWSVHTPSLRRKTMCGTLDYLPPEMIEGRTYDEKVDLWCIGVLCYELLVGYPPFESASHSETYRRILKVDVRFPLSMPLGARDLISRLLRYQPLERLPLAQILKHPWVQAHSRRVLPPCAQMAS
UniProt P51451: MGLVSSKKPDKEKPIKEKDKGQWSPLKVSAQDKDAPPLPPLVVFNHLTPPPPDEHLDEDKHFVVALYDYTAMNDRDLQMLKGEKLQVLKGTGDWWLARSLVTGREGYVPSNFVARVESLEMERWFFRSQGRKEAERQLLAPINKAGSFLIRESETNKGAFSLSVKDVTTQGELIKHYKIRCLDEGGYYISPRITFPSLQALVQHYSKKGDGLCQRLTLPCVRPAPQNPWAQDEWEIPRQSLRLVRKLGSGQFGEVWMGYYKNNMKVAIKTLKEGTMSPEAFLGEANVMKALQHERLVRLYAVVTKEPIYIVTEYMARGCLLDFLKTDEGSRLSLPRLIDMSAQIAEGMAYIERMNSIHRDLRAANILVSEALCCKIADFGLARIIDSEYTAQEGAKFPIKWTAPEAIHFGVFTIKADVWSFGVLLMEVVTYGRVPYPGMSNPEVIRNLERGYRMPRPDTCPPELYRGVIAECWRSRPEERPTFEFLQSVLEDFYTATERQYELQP
UniProt P51813: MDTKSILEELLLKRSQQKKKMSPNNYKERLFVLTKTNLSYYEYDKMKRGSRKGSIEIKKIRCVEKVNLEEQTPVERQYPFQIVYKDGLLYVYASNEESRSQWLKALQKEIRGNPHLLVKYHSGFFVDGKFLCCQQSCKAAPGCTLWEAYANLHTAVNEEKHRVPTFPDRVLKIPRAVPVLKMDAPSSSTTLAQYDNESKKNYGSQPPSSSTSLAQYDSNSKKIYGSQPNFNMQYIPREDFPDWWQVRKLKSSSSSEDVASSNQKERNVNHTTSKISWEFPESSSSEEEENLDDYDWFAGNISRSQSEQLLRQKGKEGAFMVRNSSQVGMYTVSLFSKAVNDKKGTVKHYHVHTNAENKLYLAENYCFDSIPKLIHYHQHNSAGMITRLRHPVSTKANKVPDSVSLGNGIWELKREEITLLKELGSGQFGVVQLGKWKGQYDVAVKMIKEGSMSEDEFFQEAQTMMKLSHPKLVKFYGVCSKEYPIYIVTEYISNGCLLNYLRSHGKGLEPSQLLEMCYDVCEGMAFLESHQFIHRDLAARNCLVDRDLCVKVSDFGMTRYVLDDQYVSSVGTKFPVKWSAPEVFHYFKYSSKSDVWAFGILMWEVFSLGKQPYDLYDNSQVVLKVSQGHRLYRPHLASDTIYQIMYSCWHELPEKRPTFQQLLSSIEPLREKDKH
UniProt P15056, whole entry, looked up: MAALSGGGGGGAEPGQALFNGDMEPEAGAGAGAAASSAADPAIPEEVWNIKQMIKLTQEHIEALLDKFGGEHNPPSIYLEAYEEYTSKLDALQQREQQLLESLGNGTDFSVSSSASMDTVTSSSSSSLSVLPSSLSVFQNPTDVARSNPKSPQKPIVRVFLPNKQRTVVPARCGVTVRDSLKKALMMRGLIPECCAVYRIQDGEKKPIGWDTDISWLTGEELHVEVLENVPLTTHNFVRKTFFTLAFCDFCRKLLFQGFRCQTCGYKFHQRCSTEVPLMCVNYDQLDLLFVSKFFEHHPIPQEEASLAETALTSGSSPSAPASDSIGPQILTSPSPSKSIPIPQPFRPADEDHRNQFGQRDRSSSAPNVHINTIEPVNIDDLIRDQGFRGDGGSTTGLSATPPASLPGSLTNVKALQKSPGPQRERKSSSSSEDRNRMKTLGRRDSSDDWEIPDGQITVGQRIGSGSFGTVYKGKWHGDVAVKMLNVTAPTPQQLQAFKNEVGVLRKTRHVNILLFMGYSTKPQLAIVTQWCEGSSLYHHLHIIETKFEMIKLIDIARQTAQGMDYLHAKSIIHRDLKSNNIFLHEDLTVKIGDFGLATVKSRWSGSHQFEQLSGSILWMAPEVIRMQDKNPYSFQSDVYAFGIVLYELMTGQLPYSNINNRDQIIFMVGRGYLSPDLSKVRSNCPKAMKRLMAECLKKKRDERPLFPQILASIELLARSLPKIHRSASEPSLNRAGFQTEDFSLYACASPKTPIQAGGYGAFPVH
UniProt Q06187: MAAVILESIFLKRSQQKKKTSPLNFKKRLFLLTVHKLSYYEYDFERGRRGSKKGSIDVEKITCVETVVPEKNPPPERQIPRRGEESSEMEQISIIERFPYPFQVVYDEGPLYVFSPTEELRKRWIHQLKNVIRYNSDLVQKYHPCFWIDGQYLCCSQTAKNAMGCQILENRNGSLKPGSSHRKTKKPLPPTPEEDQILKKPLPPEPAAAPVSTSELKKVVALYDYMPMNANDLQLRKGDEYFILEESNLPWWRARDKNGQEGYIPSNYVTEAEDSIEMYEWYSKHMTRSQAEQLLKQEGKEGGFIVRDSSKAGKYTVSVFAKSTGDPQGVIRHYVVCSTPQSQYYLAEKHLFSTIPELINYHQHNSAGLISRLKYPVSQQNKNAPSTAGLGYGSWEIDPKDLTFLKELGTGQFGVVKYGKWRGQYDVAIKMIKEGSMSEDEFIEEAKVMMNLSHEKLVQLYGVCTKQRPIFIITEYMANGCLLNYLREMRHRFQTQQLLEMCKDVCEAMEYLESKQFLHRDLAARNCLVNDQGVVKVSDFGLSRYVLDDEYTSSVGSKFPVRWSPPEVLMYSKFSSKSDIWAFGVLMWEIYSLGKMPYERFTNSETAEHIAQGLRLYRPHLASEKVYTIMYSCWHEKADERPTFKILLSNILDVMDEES

How the values were obtained:
Experiment in all cases: number of time points (of 5) at which kinase-Nluc abundance scored as decreased, DMSO-normalised (count); higher = more persistent destabilization
Conditions in all cases: K562; 2-18 h
ALK = ALK (UniProt Q9UM73)
ARAF = ARAF (UniProt P10398)
AURKA = AURKA (UniProt O14965)
AURKB = AURKB (UniProt Q96GD4)
AURKC = AURKC (UniProt Q9UQB9)
BLK = BLK (UniProt P51451)
BMX = BMX (UniProt P51813)
BRAF = BRAF (UniProt P15056)
BRAF_V600E = test system: BRAF_V600E
BTK = BTK (UniProt Q06187)

Structure (SMILES) | number of time points (ALK) | number of time points (ARAF) | number of time points (AURKA) | number of time points (AURKB) | number of time points (AURKC) | number of time points (BLK) | number of time points (BMX) | number of time points (BRAF) | number of time points (BRAF_V600E) | number of time points (BTK)
C[C@@H](NC(=O)c1ncnc(N)c1Cl)c1ncc(C(=O)Nc2cc(C(F)(F)F)c(Cl)cn2)s1 (2.5 µM) | 2 | 0 | 2 | 1 | 0 | 0 | 3 | 1 | 3 | 0
CCCCNc1ncc2c(-c3ccc(F)cc3)nn(CC3CCC(N)CC3)c2n1 (stereo not given) (2.5 µM) | 0 | 0 | 0 | 0 | 0 | 0 | 0 | 0 | 0 | 0
CCn1c(N)c(C(=O)NC)c(=O)c2ccc(C#CC(C)(O)COC)nc21 (stereo not given) (10 µM) | 0 | 0 | 0 | 0 | 0 | 0 | 0 | 0 | 0 | 0
Cc1n[nH]c2ncc(C(=O)N3CCC[C@H]3c3ccc(Cl)cc3)cc12 (10 µM) | 0 | 0 | 0 | 0 | 0 | 0 | 0 | 0 | 0 | 0
CN(C)CCn1cc2cc(NC(=O)c3cccc(C(F)(F)F)n3)c(C(C)(C)O)cc2n1 (10 µM) | 0 | 0 | 0 | 0 | 0 | 0 | 0 | 0 | 0 | 0
CCC[C@H](C)Oc1nc(N)c2[nH]c(=O)n(CCCCCN3CCCCC3)c2n1 (10 µM) | 0 | 0 | 0 | 0 | 0 | 0 | 0 | 0 | 0 | 0
CCOc1cc(=O)[nH]cc1-c1ccc(CC(=O)Nc2cc(C(C)(C)C(F)(F)F)on2)c(F)c1 (10 µM) | 0 | 0 | 0 | 0 | 0 | 0 | 0 | 0 | 0 | 0
CN(C[C@@H]1COCCO1)S(=O)(=O)Nc1ccc2ccc3ncc(-c4cnn(C)c4)cc3c(=O)c2c1 (2.5 µM) | 0 | 0 | 0 | 0 | 0 | 0 | 0 | 0 | 0 | 0
CC(C)(CCCCCC(O)CCCCCC(C)(C)C(=O)O)C(=O)O [Bempedoic acid] (10 µM) | 0 | 0 | 0 | 0 | 0 | 0 | 0 | 0 | 0 | 0
COc1c(Nc2ncc(Cl)c(N[C@H]3[C@@H](C(N)=O)[C@@H]4C=C[C@H]3C4)n2)ccc2c1CC[C@@H](N1CCOCC1)CC2 (10 µM) | 0 | 0 | 0 | 0 | 0 | 0 | 0 | 0 | 0 | 0
COc1cc2nc(-c3cc(F)ccc3O)nc(N[C@@H]3CNC[C@H]3C(C)(C)O)c2cc1OC (2.5 µM) | 0 | 0 | 0 | 0 | 0 | 1 | 0 | 0 | 0 | 0
CC(C)Cn1ncc2cc(Oc3ccc(F)cc3F)c(C(=O)NCCN(C)C)cc21 [p38α inhibitor 1] (10 µM) | 0 | 0 | 0 | 0 | 0 | 0 | 0 | 0 | 0 | 0
NC(=O)c1c(NC(=O)C2CC2)sc2c1CCCC2 (10 µM) | 0 | 0 | 0 | 0 | 0 | 0 | 0 | 0 | 0 | 0
CN1CCN(c2ccc(-c3ccncc3-c3cc(F)c(O)c(F)c3)cc2)CC1 (10 µM) | 0 | 0 | 0 | 0 | 0 | 0 | 0 | 0 | 0 | 0
COc1cc(Nc2ccnc3ccc(Br)cc23)cc(OC)c1OC (2.5 µM) | 1 | 0 | 0 | 0 | 0 | 0 | 0 | 0 | 0 | 0
CO[C@@H]1[C@H](N(C)C(=O)c2ccccc2)C[C@H]2O[C@]1(C)n1c3ccccc3c3c4c(c5c6ccccc6n2c5c31)C(=O)NC4 [Midostaurin] (2.5 µM) | 0 | 0 | 0 | 0 | 0 | 0 | 0 | 3 | 1 | 0
CS(=O)(=O)c1cccc(CNc2nc(Nc3ccc4c(c3)CCC(=O)N4)ncc2C(F)(F)F)c1 (10 µM) | 0 | 0 | 0 | 0 | 0 | 0 | 0 | 0 | 0 | 0
Fc1ccc(-c2nc3n(c2-c2ccncc2)CCS3)cc1 (10 µM) | 0 | 0 | 0 | 0 | 0 | 0 | 0 | 0 | 0 | 0
COc1cc2c(cc1OC)[C@@H]1C(=O)c3ccc4c(c3O[C@@H]1CO2)C=CC(C)(C)O4 [Deguelin] (10 µM) | 0 | 0 | 3 | 0 | 0 | 2 | 0 | 0 | 0 | 0

A section taken from the entries so far:
Structure (SMILES) | number of time points (ALK) | number of time points (ARAF) | number of time points (AURKA) | number of time points (AURKB) | number of time points (AURKC) | number of time points (BLK) | number of time points (BMX) | number of time points (BRAF) | number of time points (BRAF_V600E) | number of time points (BTK)
CCC[C@H](C)Oc1nc(N)c2[nH]c(=O)n(CCCCCN3CCCCC3)c2n1 (10 µM) | 0 | 0 | 0 | 0 | 0 | 0 | 0 | 0 | 0 | 0
CCOc1cc(=O)[nH]cc1-c1ccc(CC(=O)Nc2cc(C(C)(C)C(F)(F)F)on2)c(F)c1 (10 µM) | 0 | 0 | 0 | 0 | 0 | 0 | 0 | 0 | 0 | 0
CN(C[C@@H]1COCCO1)S(=O)(=O)Nc1ccc2ccc3ncc(-c4cnn(C)c4)cc3c(=O)c2c1 (2.5 µM) | 0 | 0 | 0 | 0 | 0 | 0 | 0 | 0 | 0 | 0

Next results:

Structure (SMILES) | number of time points (ALK) | number of time points (ARAF) | number of time points (AURKA) | number of time points (AURKB) | number of time points (AURKC) | number of time points (BLK) | number of time points (BMX) | number of time points (BRAF) | number of time points (BRAF_V600E) | number of time points (BTK)
CN1CCC(Nc2nc(Nc3ccc(Oc4ccccc4)cc3)c3c(=O)[nH]cc(Br)c3n2)CC1 (2.5 µM) | 0 | 0 | 3 | 0 | 0 | 3 | 4 | 0 | 0 | 1
CC(C)n1cnc2c(Nc3cccc(Cl)c3)nc(N[C@H]3CCCC[C@@H]3N)nc21 (2.5 µM) | 0 | 0 | 0 | 0 | 0 | 0 | 0 | 0 | 0 | 0
O=C1Cc2ccccc2N1 [Oxindole] (10 µM) | 0 | 0 | 0 | 0 | 0 | 0 | 0 | 0 | 0 | 0
CN1CCN(c2ccc(-n3cc(-c4ccncc4OCC4CCNCC4)cn3)cc2)CC1 [MELK-8a (hydrochloride)] (10 µM) | 0 | 0 | 3 | 3 | 0 | 3 | 4 | 3 | 3 | 0
CC(=O)O/N=C1/C(c2c(O)[nH]c3cc(Br)ccc23)=Nc2ccccc21 [BIO-acetoxime] (10 µM) | 0 | 0 | 0 | 0 | 0 | 0 | 0 | 0 | 0 | 0
Cc1cccc(CC(=O)N2CCc3c2ccc(-c2cn(C)c4ncnc(N)c24)c3F)n1 (10 µM) | 0 | 0 | 0 | 0 | 0 | 0 | 1 | 0 | 0 | 0
CN1C(=O)N[C@@H](Cc2c[nH]c3c(Cl)cccc23)C1=O [Necrostatin 2 (S enantiomer)] (10 µM) | 0 | 0 | 0 | 0 | 0 | 0 | 0 | 0 | 0 | 0
COc1ccc(CN2CCC(c3ccc4nc(C(=O)N5CCN(Cc6ccc(C(F)(F)F)cc6)CC5)[nH]c4c3)CC2)cn1 (2.5 µM) | 0 | 0 | 0 | 0 | 0 | 0 | 0 | 0 | 1 | 0
O=C1CCC(N2C(=O)c3cccc(OCCCCCOc4ccc(CC(=O)Nc5cc(C6CCC6)[nH]n5)cc4)c3C2=O)C(=O)N1 (stereo not given) [PROTAC CDK9 Degrader-1] (10 µM) | 3 | 0 | 3 | 0 | 0 | 0 | 0 | 0 | 1 | 0
CC1=CC(=O)C(C(C)C)=C/C1=N/OC(=O)c1ccccc1C [Poloxin] (2.5 µM) | 0 | 0 | 0 | 0 | 0 | 0 | 0 | 0 | 0 | 0
O=C(O)c1c[nH]c2cc(Cl)c(-c3ccc(C4(O)CCC4)cc3)cc12 (10 µM) | 0 | 0 | 0 | 0 | 0 | 0 | 0 | 0 | 0 | 0
COc1cc(N2CCC(N3CCN(C)CC3)CC2)ccc1Nc1ncnc(Nc2ccccc2S(=O)(=O)C(C)C)n1 (10 µM) | 0 | 0 | 0 | 0 | 0 | 0 | 2 | 0 | 0 | 0
Nc1ccc(-c2cccc(C(=O)Nc3cnc4nc(N5CCOCC5)oc4c3)n2)cn1 (10 µM) | 0 | 0 | 4 | 0 | 0 | 0 | 0 | 0 | 0 | 0
CNCCOc1ccccc1C1(Nc2nccn(-c3cc(C(=O)NC4CC4)cc(F)c3C)c2=O)CC1 (10 µM) | 0 | 0 | 0 | 0 | 0 | 0 | 0 | 0 | 0 | 0
NC(=O)c1cnc(N[C@@H]2CCCC[C@@H]2N)nc1Nc1cccc(-n2nccn2)c1 (2.5 µM) | 0 | 0 | 0 | 0 | 0 | 0 | 0 | 0 | 0 | 0
Nc1nccc(Oc2ccc3c(C(=O)Nc4cccc(C(F)(F)F)c4)cccc3c2)n1 (10 µM) | 0 | 1 | 0 | 0 | 2 | 0 | 0 | 0 | 1 | 0
CCc1cc(Nc2nccc(-c3c(-c4ccc(OC)c(C(=O)Nc5c(F)cccc5F)c4)nc4ccccn34)n2)c(OC)cc1N1CCC(N2CCN(S(C)(=O)=O)CC2)CC1 (2.5 µM) | 0 | 0 | 0 | 0 | 0 | 0 | 0 | 0 | 0 | 0
CCOC(=O)c1c(Nc2ccccc2Cl)oc(/C=C2\C=Nc3ncccc32)c1O (10 µM) | 0 | 0 | 0 | 0 | 0 | 0 | 0 | 0 | 0 | 0
